Results are given in words; binding and its absence hold for the method and conditions named. In cells and extracts the contact can be indirect. Some binding calls cover weakened binding; strength is not graded here. Where a sequence is shown, tags or fusion partners need not be part of it.
T1: FLAG-tagged bovine LXRα (liver X receptor alpha) (bovine) (UniProt Q5E9B6)
T1 sequence: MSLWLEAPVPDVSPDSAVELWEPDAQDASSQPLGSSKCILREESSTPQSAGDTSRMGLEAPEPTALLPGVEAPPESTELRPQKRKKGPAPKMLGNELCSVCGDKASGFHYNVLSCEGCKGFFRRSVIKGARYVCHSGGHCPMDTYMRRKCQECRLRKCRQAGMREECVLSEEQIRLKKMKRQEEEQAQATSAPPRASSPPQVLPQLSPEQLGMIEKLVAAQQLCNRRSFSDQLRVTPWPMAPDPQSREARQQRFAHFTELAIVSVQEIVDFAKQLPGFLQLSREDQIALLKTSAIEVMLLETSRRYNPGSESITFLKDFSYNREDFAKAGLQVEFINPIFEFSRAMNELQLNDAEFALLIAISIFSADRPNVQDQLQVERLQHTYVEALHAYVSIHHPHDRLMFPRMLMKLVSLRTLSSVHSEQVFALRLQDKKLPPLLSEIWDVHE

By UniProt entry, the sequences of proteins in these tests, tags left out.
UniProt Q9XTA5: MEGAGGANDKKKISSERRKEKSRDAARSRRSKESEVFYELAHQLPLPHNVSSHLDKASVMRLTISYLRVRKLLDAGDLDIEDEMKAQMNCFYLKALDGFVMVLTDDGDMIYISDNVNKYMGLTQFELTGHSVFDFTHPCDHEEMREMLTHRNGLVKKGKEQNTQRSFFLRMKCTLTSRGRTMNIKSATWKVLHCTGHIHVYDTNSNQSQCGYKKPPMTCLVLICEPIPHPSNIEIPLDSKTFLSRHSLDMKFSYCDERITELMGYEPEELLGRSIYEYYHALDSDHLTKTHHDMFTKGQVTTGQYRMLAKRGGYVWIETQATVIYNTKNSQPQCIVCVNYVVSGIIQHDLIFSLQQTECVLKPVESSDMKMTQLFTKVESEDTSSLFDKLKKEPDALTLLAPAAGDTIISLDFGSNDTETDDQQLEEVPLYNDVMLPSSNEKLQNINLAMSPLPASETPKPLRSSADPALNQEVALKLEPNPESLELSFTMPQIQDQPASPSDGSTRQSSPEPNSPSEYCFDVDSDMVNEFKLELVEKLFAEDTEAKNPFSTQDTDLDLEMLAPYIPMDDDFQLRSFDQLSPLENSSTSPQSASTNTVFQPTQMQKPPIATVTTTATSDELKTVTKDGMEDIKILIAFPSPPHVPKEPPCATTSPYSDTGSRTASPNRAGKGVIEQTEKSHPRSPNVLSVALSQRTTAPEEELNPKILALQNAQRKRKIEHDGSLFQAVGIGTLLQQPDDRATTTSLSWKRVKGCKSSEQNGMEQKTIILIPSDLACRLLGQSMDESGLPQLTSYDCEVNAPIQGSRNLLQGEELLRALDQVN


Tests used:
[1] = biological target: T1, FLAG-tagged bovine LXRα (liver X receptor alpha) (bovine); assay: co-IP; HEK293 cells co-transfected with FLAG-LXRα and HA-HIF-1α, 100 μM CoCl2 for 8 h to simulate hypoxia; 500 μg RIPA lysate with anti-FLAG or anti-HA antibody overnight at 4°C, protein A/G magnetic beads; blot with the reciprocal antibody
[2] = biological target: HA-tagged bovine HIF-1α (bovine) (UniProt Q9XTA5); assay: as above

binding [1]	binding [2]	Molecule
binds	–	HA-tagged bovine HIF-1α (from UniProt Q9XTA5 1-823)
–	binds	FLAG-tagged bovine LXRα (liver X receptor alpha) (protein, UniProt Q5E9B6 1-447) MSLWLEAPVPDVSPDSAVELWEPDAQDASSQPLGSSKCILREESSTPQSAGDTSRMGLEAPEPTALLPGVEAPPESTELRPQKRKKGPAPKMLGNELCSVCGDKASGFHYNVLSCEGCKGFFRRSVIKGARYVCHSGGHCPMDTYMRRKCQECRLRKCRQAGMREECVLSEEQIRLKKMKRQEEEQAQATSAPPRASSPPQVLPQLSPEQLGMIEKLVAAQQLCNRRSFSDQLRVTPWPMAPDPQSREARQQRFAHFTELAIVSVQEIVDFAKQLPGFLQLSREDQIALLKTSAIEVMLLETSRRYNPGSESITFLKDFSYNREDFAKAGLQVEFINPIFEFSRAMNELQLNDAEFALLIAISIFSADRPNVQDQLQVERLQHTYVEALHAYVSIHHPHDRLMFPRMLMKLVSLRTLSSVHSEQVFALRLQDKKLPPLLSEIWDVHE

From article PMC12379019
